Data reported in patent EP0518769B1, “Ethanolaminebenzoate derivative, process for their preparation and pharmaceutical compositions containing them” (ADIR ET COMPAGNIE, priority 1991, dated 1992).
At least one compound was matched to its structure with a doubt left.

Legend:
LDL [1] = test: LDL oxidation in vitro by copper; assay type: biochemical; conditions: à 10⁻⁴ M
Text: (§1) Une étude comparative entre le produit de l'exemple 1 et les substances de référence (Benfluorex, Diméthylbiguanide) sur l'oxydation des LDL in vitro a été réalisée.

LDL [2] = test: LDL oxidation in vitro by monocytes; assay type: cell-based; conditions: à 10⁻⁴ M
Text: as §1

CN(C)C(=N)NC(=N)N [Diméthylbiguanide]
Oxydation des LDL in vitro par le cuivre (LDL [1]): Inactif à 10⁻⁴ M
Oxydation des LDL in vitro par les monocytes (LDL [2]): Inactif à 10⁻⁴ M
